In PubChem BioAssay AID493014 (National Center for Advancing Translational Sciences (NCATS), 2011) one finds AC50 data, which are given here for 64 molecules.

Molecules are shown by their SMILES. This is one part of the list. Further columns of the screen follow, without active or inactive calls. Most of these compounds were active or inconclusive in the main read-out, so they are no random draw. The note in brackets gives the kind of curve behind each potency; many fits are weak.

This assay in a line: qHTS Assay to Find Inhibitors of Chronic Active B-Cell Receptor Signaling. The following applies: ABC-DLBCL IkBa-CBG/CBR reporter, luminescence ratio (green luciferase fused to IkBa over red control in TMD8 lymphoma cells), 4 h. The essentials: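 Concentration-response series (up to 46 uM) were applied to TMD8 dual-reporter cells for 4 h at 37C with doxycycline. Green/red ratio, after filter-overlap correction, defined %Activity; red signal alone was normalised to basal cells and zero luminescence.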

The mark [1] stands for this setting: measured here: CBR red luminescence, cell number.
The mark [2] stands for this setting: measured here: IkBa-CBG green luminescence.

Turning to `CC(=O)NCc1ccc(C(=O)CSc2nnc(C3CC3)n2C2CC2)cc1`, the AC50 – broadly, the concentration at which the activity in the assay is half-maximal – under setting [1] is 14.6 µM [falling, partial curve, poor fit]. With `O=C(O)c1ccc(N2C(=O)c3cccnc3C2=O)cc1`, the AC50 under setting [1] was 12.6 µM [falling, single point].

As to `O=C1C(c2ccccc2)SC(=Nc2ccccc2)N1S(=O)(=O)c1ccccc1` (configuration not stated), the AC50 under setting [1] is 4.11 µM [falling, full curve]. Take `COCCN(C(=O)COC(=O)c1ccccc1Cc1ccccc1)c1c(N)n(Cc2ccccc2)c(=O)[nH]c1=O`: under setting [1], the AC50 was 23.1 µM [falling, partial curve, poor fit].

In the case of `COc1cc(N2CCCC2)c(OC)cc1/C=C(/C#N)c1cccc(Br)c1`, the AC50 under setting [1] was 29.1 µM [rising, single point]. For `CCOC(=O)c1nc2cc3n(c(C)c-2c1C)C(C)C(C)=C3C` (configuration not stated), the AC50 under setting [1] is 5.8 µM [falling, single point]. As to `COc1ccc(OCCOc2ccc(/C=C3\C(=N)N4N=C(C)SC4=NC3=O)cc2)cc1`, the AC50 under setting [1] is 29.1 µM [rising, single point].

Turning to `Cc1ccc(C(=O)N2N=C(c3ccc(Br)cc3)CC2c2ccccc2O)cc1` (configuration not stated), the half-maximal activity concentration (AC50) under setting [1] was 15.8 µM [falling, partial curve, poor fit]. Same read-out and setting: then `Cc1nc(N)sc1-c1csc(Nc2cccc(C(=O)O)c2)n1`, with 25.1 µM [falling, single point]; and `Clc1ccc(COc2ccccn2)c(Cl)c1`, with 3.16 µM [rising, partial curve, poor fit]. On the same count and under the same terms, next, `O=C(Nc1ccc(Cl)cc1)Nc1ccc(Oc2cccnc2)nc1`: 0.794 µM [rising, full curve, poor fit]; `O=C1c2cccnc2C(Nc2ccc(S(=O)(=O)N3CCCCCC3)cc2)N1Cc1ccccc1` (configuration not stated): 6.31 µM [falling, partial curve].

In the case of `CN(C)CCNC(=O)C1(O)c2cc(Br)ccc2NC(=O)N1c1ccc(Cl)cc1` (configuration not stated), under setting [1], the half-maximal activity concentration (AC50) is 10 µM [rising, partial curve, poor fit]. On to `CCCCn1c(N)c(N(CCOC)C(=O)c2ccc(N3CCCC3=O)cc2)c(=O)[nH]c1=O`, for which the AC50 under setting [1] is 13 µM [rising, partial curve, poor fit]. `CCN(CC)CCNC(=O)Cn1c(-c2ccccn2)nc2ccccc21`: under setting [1], the AC50 is 29.1 µM [rising, single point]. On to `O=C(Nc1cccc(/C=C/c2nc3ccccc3c(=O)[nH]2)c1)c1ccccc1Cl`, for which the AC50 runs as follows: under setting [1], 0.398 µM [falling, full curve]; under setting [2], 0.398 µM [rising, full curve, poor fit]. With `COc1ccc(CCNC(=O)C2CC(c3cccc(F)c3)=NO2)cc1` (configuration not stated), under setting [1], the AC50 was 0.891 µM [rising, single point].

On to `Cc1cc2nn(-c3ccc(F)cc3)nc2cc1N`, for which, under setting [1], the AC50 was 0.794 µM [rising, full curve, poor fit]. For the molecule `CCOC(=O)C1CCN(C(=O)COc2ccc([N+](=O)[O-])cc2)CC1`, under setting [1], the AC50 is 11.2 µM [falling, partial curve]. In the case of `Cc1ccnc(SCC(=O)N2CCc3ccccc3C2)n1`, the half-maximal activity concentration (AC50) under setting [1] is 8.91 µM [rising, partial curve, poor fit]. As to `COc1ccccc1NC1=NCC(=O)N1Cc1ccccc1`, the AC50 under setting [1] is 7.94 µM [falling, partial curve]. On to `O=C(COc1ncnc2sccc12)NC1CCS(=O)(=O)C1` (configuration not stated), for which the AC50 under setting [1] is 11.2 µM [falling, partial curve, poor fit].

With `CCOC(=O)c1n[nH]n2c1nc(=O)c1ccccc12`, under setting [1], the AC50 was 6.31 µM [falling, partial curve, poor fit]. On to `CCC(=O)N(CCC1(C(C)C)CCOC(C)(C)C1)C(C)c1cccs1` (configuration not stated), for which the AC50 under setting [1] is 11.2 µM [falling, partial curve, poor fit]. For `CC(C)c1nnc(NC(=O)C2CCCCC2)s1`, under setting [1], the AC50 was 0.0651 µM [rising, full curve, poor fit].

As for `Cc1cccc(NC(=O)C(C)n2cc([N+](=O)[O-])cn2)n1` (configuration not stated), the AC50 under setting [1] was 3.55 µM [rising, partial curve, poor fit]. On to `Cc1ccc(NC(=S)N2CCCCC2)cc1C`, for which, under setting [1], the AC50 is 11.2 µM [rising, single point]. Take `Cc1ccc(NC(=O)c2ccccc2F)nc1`: the AC50 under setting [1] is 29.1 µM [falling, single point]. Take `Cc1onc(-c2ccccc2)c1C(=O)Nc1ccc(Br)cc1Cl`: the AC50 under setting [1] was 2.24 µM [falling, full curve]. Turning to `C=CCn1c(CNc2ccc(C)cc2)nnc1SCC(=O)N/N=C/c1ccc(O)cc1`, under setting [1], the concentration at half-maximal activity (AC50) was 5.62 µM [falling, single point]. The same measure, in the same setting: then `COc1ccc(CN=C2NN=C(c3ccccc3)CS2)cc1`, with 35.5 µM [falling, single point]; and `COc1cccc(CNC23CC4CC(CC(C4)C2)C3)c1OCc1ccccc1`, with 12.6 µM [falling, single point]; and `C#CCOCCOCCOCCNc1nc(N2CCOCC2)nc(N2CCN(C(=O)[C@H](CCCCN)n3cc([C@@H](N)CC(C)C)nn3)CC2)n1`, with 12.6 µM [rising, partial curve, poor fit]. Regarding `CN(C)c1ccc(NC(N)=S)cc1`, the half-maximal activity concentration (AC50) under setting [1] is 11.6 µM [rising, partial curve]. For the molecule `CCCCC(=O)OCC(=O)N1N=C(c2c[nH]c3ccccc23)C(O)C1c1ccc(OC)cc1` (configuration not stated), the AC50 under setting [1] was 35.5 µM [falling, single point].

On to `Cc1c(C#N)c(N=CN(C)C)c(C(=O)c2ccc(Br)cc2)n1-c1ccccc1`, for which the AC50 under setting [1] is 1.64 µM [rising, single point]. Still for that read-out and setting: next, `O=c1c(Cc2ccccc2)c(O)c2cccc3c4c(n1c23)CCCC4`: 12.6 µM [falling, partial curve, poor fit]; `Cn1ncc(C(=O)Nc2ccc(Cl)cc2)c1C(F)(F)F`: 15.8 µM [falling, single point]. For the molecule `Cc1ccc(C2=NN(C(=O)CCC(=O)O)C(c3cccc([N+](=O)[O-])c3)C2)cc1` (configuration not stated), the AC50 under setting [1] is 35.5 µM [falling, partial curve, poor fit]. Consider `CCn1c(SCC(=O)Nc2nccs2)nnc1-c1ccc(C)cc1`, for which, under setting [1], the AC50 is 10.3 µM [falling, partial curve].

With `C/C(=N\Nc1cccc2cccnc12)c1ccc(C)cc1`, the concentration at half-maximal activity (AC50) under setting [1] is 35.5 µM [falling, single point].

In the case of `COc1ccccc1C(=O)COC(=O)C1(C)CC1(Cl)Cl` (configuration not stated), the AC50 under setting [1] was 13 µM [rising, partial curve, poor fit]. With `COc1ccccc1-c1cc(C(=O)NCCc2ccccc2)no1`, the AC50 by setting is: under setting [1], 16.4 µM [falling, partial curve]; under setting [2], 20.6 µM [falling, partial curve, poor fit]. Consider `Nc1nc(=S)c2ncn(C3CCCC3)c2[nH]1`, for which the AC50 under setting [1] was 0.501 µM [falling, full curve, poor fit]. Same read-out and setting: then `COc1ccc(C(=O)CC(=O)C(=O)Nc2c(C)cccc2C)cc1`, with 22.4 µM [rising, single point]; and `CN(CC(=O)O/N=C(\N)c1cccc([N+](=O)[O-])c1)S(=O)(=O)c1ccccc1`, with 29.1 µM [rising, single point]; and `CC(C)(C)c1nnc(NC(=O)Nc2ccc(Cl)cc2)s1`, with 35.5 µM [rising, single point].

With `ClC(/C=N/n1cnnc1)=C/c1ccccc1`, under setting [1], the AC50 is 35.5 µM [falling, single point].

Consider `O=c1[nH]c(C2CCN(S(=O)(=O)c3ccc(C(F)(F)F)cc3)CC2)nc2c1nnn2Cc1ccc(F)cc1`, for which the AC50 under setting [1] was 35.5 µM [falling, single point]. As to `CN(Cc1nc(-c2cccs2)no1)CC(O)c1ccccc1` (configuration not stated), the AC50 under setting [1] is 11.2 µM [falling, partial curve, poor fit]. `O=C(NNC(=O)c1ccccc1-n1cccc1)c1ccc(F)cc1`: the AC50 under setting [1] was 10 µM [rising, partial curve, poor fit]. For `Fc1nc(N2CCCC2)c(F)c(Oc2ccccc2Oc2c(F)c(F)nc(N3CCCC3)c2F)c1F`, the AC50 under setting [1] was 22.4 µM [falling, single point]. As for `CN1C(=O)S/C(=C/c2ccc(OCc3cccc(C(=O)O)c3)cc2)C1=O`, under setting [1], the AC50 is 17.8 µM [falling, partial curve, poor fit]. Turning to `COc1ccc(SC[C@H](Cc2ccccc2)N2CCN(CCc3ccccc3)CCC2=O)cc1`, the AC50 under setting [1] is 35.5 µM [falling, single point]. With `O=C1OC(c2ccc(F)cc2)=C/C1=C\c1ccc([N+](=O)[O-])o1`, the AC50 under setting [1] was 22.4 µM [falling, partial curve, poor fit].

As to `CC(C)CC(=O)N1CCN(S(=O)(=O)c2ccc3ccccc3c2)CC1`, the AC50 under setting [1] is 23.1 µM [falling, partial curve, poor fit]. As to `Cn1c(=O)n(C)c2cc(NC(=O)c3cc4ccccc4o3)ccc21`, the AC50 under setting [1] is 29.1 µM [falling, single point]. For `Cn1c(=O)[nH]c(=O)c2c1nc(SCCN1CCOCC1)n2CCCc1ccccc1`, the AC50 under setting [1] is 2.06 µM [rising, single point]. As to `Cc1ccc2ccc3cccc4ccc1c2c34`, the AC50 under setting [1] was 14.6 µM [rising, partial curve].

`S=c1[nH]nc(-c2ccncc2)n1/N=C/C(Cl)=C\c1ccccc1`: the AC50 under setting [1] is 14.1 µM [falling, partial curve] and the AC50 under setting [2] is 25.1 µM [falling, single point]. With `COC(=O)c1ccc(C(=S)NCC2(N(C)C)CCCCC2)cc1`, the AC50 under setting [1] was 35.5 µM [falling, partial curve, poor fit]. For `O=C1c2ccccc2C(=O)N1c1cccc2cccnc12`, under setting [1], the AC50 is 18.4 µM [rising, partial curve, poor fit]. Take `CC(=O)n1nc(-c2ccccc2)nc1NCc1cccs1`: under setting [1], the half-maximal activity concentration (AC50) was 10 µM [falling, partial curve]. Still for that read-out and setting: then `CCN(CC)c1ccc(NC(=O)CN2CCN(S(=O)(=O)c3cc(Cl)ccc3OC)CC2)cc1`, with 29.1 µM [falling, single point].
